Reference: the supplement of paper PMC12823440, “Inhibitors supercharge kinase turnover through native proteolytic circuits” (Nature, 2025)
Counter-ions that a name gives are not always drawn. This is one part of the list. The calls rarely recur for the same compound in another form.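 Kinases were expressed as nanoluciferase fusions in K562 cells and luminescence was read every 4 h between 2 and 18 h as percent of control, DMSO set to 100% and a positive control to 0%. A time point counts as decreased when the signal drops significantly (2 sigma). The hit call is the authors' own, does not follow from the count of time points alone, and its rule is not shown.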

By UniProt entry, the sequences of proteins in these tests, tags left out.
UniProt P29317, whole entry: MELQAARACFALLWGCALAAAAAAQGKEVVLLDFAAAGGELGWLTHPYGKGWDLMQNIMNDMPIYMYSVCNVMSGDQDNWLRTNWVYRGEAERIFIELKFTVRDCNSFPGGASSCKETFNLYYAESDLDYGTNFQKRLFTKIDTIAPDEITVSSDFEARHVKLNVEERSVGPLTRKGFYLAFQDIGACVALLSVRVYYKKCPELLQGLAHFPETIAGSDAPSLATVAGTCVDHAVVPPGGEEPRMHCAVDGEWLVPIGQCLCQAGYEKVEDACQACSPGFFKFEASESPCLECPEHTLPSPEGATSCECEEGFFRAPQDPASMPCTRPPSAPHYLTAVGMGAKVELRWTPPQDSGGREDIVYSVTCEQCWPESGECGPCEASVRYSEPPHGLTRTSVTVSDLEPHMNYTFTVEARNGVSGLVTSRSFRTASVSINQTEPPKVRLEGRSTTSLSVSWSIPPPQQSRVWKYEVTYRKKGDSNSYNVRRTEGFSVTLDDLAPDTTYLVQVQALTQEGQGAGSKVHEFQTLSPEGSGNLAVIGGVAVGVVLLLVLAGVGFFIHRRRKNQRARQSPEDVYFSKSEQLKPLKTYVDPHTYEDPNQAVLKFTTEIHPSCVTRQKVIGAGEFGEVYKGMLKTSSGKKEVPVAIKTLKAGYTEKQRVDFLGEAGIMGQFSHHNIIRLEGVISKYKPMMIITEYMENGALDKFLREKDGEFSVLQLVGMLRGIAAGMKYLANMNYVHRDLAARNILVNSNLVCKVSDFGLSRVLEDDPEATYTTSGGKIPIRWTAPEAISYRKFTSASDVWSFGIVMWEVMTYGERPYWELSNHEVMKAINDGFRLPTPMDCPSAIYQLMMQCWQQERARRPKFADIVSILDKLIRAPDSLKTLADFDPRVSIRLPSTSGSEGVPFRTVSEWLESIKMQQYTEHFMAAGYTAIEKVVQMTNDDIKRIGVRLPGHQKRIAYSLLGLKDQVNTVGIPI
UniProt P21860, whole entry: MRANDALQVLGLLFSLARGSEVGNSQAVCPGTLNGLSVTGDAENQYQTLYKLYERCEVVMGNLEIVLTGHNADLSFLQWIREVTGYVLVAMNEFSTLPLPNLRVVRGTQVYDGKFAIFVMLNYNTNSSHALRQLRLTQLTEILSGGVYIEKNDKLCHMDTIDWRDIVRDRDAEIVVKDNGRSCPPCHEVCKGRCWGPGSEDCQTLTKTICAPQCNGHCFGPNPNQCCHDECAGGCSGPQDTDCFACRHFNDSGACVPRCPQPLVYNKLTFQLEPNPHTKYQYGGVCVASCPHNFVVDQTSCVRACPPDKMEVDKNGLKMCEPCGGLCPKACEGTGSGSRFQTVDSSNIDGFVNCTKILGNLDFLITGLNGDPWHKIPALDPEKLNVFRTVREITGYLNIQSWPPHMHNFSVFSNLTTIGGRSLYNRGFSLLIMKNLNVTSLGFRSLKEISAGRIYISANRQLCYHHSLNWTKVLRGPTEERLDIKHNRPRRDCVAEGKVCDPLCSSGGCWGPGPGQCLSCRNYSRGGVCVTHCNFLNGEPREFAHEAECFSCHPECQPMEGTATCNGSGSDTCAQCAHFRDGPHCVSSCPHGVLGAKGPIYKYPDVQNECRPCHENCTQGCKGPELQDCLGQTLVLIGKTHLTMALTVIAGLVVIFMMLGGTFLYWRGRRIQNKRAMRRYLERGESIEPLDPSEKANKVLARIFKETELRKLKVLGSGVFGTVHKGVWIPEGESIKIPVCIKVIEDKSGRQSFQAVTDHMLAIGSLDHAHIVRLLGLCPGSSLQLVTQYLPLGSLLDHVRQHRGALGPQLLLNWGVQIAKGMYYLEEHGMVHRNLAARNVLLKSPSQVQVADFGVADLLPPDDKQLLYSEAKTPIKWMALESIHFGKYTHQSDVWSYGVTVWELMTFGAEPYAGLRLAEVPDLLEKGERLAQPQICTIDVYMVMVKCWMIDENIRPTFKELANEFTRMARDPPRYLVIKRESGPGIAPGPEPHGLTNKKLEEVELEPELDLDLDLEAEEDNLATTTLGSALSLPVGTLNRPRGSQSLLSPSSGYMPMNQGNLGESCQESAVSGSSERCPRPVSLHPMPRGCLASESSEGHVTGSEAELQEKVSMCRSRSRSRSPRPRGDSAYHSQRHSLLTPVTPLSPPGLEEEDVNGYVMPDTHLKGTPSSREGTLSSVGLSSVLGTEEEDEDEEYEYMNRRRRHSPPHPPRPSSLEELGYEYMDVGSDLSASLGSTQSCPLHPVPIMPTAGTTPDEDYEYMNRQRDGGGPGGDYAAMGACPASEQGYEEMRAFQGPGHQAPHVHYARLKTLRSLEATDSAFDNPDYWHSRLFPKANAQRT
UniProt Q15303, whole entry R711C: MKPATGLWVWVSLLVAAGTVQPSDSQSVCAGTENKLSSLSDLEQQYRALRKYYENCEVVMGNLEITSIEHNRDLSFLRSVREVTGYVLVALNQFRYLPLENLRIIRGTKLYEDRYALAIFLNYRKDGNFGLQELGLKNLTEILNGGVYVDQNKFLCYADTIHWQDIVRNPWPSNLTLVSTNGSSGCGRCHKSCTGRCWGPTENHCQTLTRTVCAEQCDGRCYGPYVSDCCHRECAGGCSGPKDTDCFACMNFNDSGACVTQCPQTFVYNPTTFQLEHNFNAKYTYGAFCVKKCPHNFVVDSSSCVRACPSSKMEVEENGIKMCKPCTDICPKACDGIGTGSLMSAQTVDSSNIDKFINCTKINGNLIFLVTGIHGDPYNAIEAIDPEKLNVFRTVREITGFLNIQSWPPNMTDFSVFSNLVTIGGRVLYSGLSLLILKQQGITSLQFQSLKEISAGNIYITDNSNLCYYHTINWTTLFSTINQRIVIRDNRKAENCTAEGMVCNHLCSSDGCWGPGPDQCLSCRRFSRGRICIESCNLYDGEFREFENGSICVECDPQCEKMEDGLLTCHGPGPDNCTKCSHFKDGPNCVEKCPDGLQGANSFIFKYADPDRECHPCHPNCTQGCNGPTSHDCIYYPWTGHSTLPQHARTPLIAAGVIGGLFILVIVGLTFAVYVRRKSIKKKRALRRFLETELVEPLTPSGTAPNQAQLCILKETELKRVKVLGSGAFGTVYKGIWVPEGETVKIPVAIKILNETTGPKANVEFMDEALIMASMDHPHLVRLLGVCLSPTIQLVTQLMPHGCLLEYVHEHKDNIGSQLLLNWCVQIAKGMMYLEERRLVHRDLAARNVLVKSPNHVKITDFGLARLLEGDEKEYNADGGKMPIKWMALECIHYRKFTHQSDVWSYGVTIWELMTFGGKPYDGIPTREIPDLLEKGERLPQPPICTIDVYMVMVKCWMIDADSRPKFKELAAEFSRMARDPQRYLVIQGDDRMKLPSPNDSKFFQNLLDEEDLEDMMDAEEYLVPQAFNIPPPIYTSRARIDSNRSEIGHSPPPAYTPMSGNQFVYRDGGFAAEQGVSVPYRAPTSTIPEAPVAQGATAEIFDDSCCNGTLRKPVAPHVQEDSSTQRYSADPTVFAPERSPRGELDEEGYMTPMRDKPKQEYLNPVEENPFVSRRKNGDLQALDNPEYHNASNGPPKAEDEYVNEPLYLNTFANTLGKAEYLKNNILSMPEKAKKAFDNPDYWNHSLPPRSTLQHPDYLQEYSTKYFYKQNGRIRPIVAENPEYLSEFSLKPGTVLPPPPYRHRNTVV

How the values were obtained:
Assay in all cases: kinase-Nluc reporter destabilization hit call (1 = scored as downregulated) (binary); higher = compound decreases kinase abundance
Settings in all cases: K562, 2-18 h
EGFR = EGFR (UniProt P00533)
EGFR_G719S = EGFR_G719S (UniProt P00533)
EGFR_G719S_T790M = EGFR_G719S_T790M (UniProt P00533)
EGFR_L718V = EGFR_L718V (UniProt P00533)
EGFR_L858R = EGFR_L858R (UniProt P00533)
EGFR_L861Q = EGFR_L861Q (UniProt P00533)
EGFR_T790M = EGFR_T790M (UniProt P00533)
EPHA2 = EPHA2 (UniProt P29317)
ERBB3 = ERBB3 (UniProt P21860)
[1] = biological target: ERBB4_R711C (clone: ERBB4_mut) (UniProt Q15303)

Measured: kinase-Nluc reporter destabilization hit call

CNC(=O)c1ccccc1Nc1cc(Nc2ccc(N3CCOCC3)cc2OC)ncc1C(F)(F)F
inactive: EGFR; 10 µM 0 | EGFR_G719S; 10 µM 0 | EGFR_G719S_T790M; 10 µM 0 | EGFR_L718V; 10 µM 0 | EGFR_L858R; 10 µM 0 | EGFR_L861Q; 10 µM 0 | EGFR_T790M; 10 µM 0 | EPHA2; 10 µM 0 | ERBB3; 10 µM 0 | [1]; 10 µM 0

CNC(=O)c1ccccc1Nc1cc(Nc2ccc(N3CCOCC3)cc2OC)ncc1C(F)(F)F [PND-1186 (hydrochloride)]
inactive: EGFR; 10 µM 0 | EGFR_G719S; 10 µM 0 | EGFR_G719S_T790M; 10 µM 0 | EGFR_L718V; 10 µM 0 | EGFR_L858R; 10 µM 0 | EGFR_L861Q; 10 µM 0 | EGFR_T790M; 10 µM 0 | EPHA2; 10 µM 0 | ERBB3; 10 µM 0 | [1]; 10 µM 0

COc1ccc(S(=O)(=O)Nc2ccccc2CN(C)C/C=C/c2ccc(Cl)cc2)cc1 [KN-92 (hydrochloride)]
inactive: EGFR; 2.5 µM 0 | EGFR_G719S; 2.5 µM 0 | EGFR_G719S_T790M; 2.5 µM 0 | EGFR_L718V; 2.5 µM 0 | EGFR_L858R; 2.5 µM 0 | EGFR_L861Q; 2.5 µM 0 | EGFR_T790M; 2.5 µM 0 | EPHA2; 2.5 µM 0 | ERBB3; 2.5 µM 0 | [1]; 2.5 µM 0

C=CC(=O)Nc1cc(Nc2ncc(C(=O)OC(C)C)c(-c3cn(C)c4ccccc34)n2)c(OC)cc1N(C)CCN(C)C [Mobocertinib]
inactive: EGFR; 10 µM 0 | EGFR_G719S; 10 µM 0 | EGFR_G719S_T790M; 10 µM 0 | EGFR_L718V; 10 µM 0 | EGFR_L858R; 10 µM 0 | EGFR_L861Q; 10 µM 0 | EGFR_T790M; 10 µM 0 | EPHA2; 10 µM 0 | ERBB3; 10 µM 0 | [1]; 10 µM 0

CN(C)C(=O)c1cc2cnc(Nc3ccc(N4CCNCC4)cn3)nc2n1C1CCCC1 [Ribociclib hydrochloride]
inactive: EGFR; 2.5 µM 0 | EGFR_G719S; 2.5 µM 0 | EGFR_G719S_T790M; 2.5 µM 0 | EGFR_L718V; 2.5 µM 0 | EGFR_L858R; 2.5 µM 0 | EGFR_L861Q; 2.5 µM 0 | EGFR_T790M; 2.5 µM 0 | EPHA2; 2.5 µM 0 | ERBB3; 2.5 µM 0 | [1]; 2.5 µM 0

Clc1ccc(C2(c3ccc(-c4cn[nH]c4)cc3)CCNCC2)cc1
inactive: EGFR; 10 µM 0 | EGFR_G719S; 10 µM 0 | EGFR_G719S_T790M; 10 µM 0 | EGFR_L718V; 10 µM 0 | EGFR_L858R; 10 µM 0 | EGFR_L861Q; 10 µM 0 | EGFR_T790M; 10 µM 0 | EPHA2; 10 µM 0 | ERBB3; 10 µM 0 | [1]; 10 µM 0

C=CC(=O)Nc1cc(Nc2nccc(-c3cn(C)c4ccccc34)n2)c(OC)cc1N(C)CCN(C)C [Osimertinib (dimesylate)]
inactive: EPHA2; 2.5 µM 0 | ERBB3; 2.5 µM 0 | [1]; 2.5 µM 0

CCS(=O)(=O)N1CCN(c2ccc(Nc3ncc(C(N)=O)c(NC4CC4)n3)cc2)CC1 [Cerdulatinib (hydrochloride)]
inactive: EGFR; 10 µM 0 | EGFR_G719S; 10 µM 0 | EGFR_G719S_T790M; 10 µM 0 | EGFR_L718V; 10 µM 0 | EGFR_L858R; 10 µM 0 | EGFR_L861Q; 10 µM 0 | EGFR_T790M; 10 µM 0 | EPHA2; 10 µM 0 | ERBB3; 10 µM 0 | [1]; 10 µM 0

Cc1cccc(-c2[nH]c(CNc3ccccc3F)nc2-c2ccc3ncnn3c2)n1 [Vactosertib]
inactive: EGFR; 2.5 µM 0 | EGFR_G719S; 2.5 µM 0 | EGFR_G719S_T790M; 2.5 µM 0 | EGFR_L718V; 2.5 µM 0 | EGFR_L858R; 2.5 µM 0 | EGFR_L861Q; 2.5 µM 0 | EPHA2; 2.5 µM 0 | ERBB3; 2.5 µM 0 | [1]; 2.5 µM 0

C[C@H](CCC(=O)NCCS(=O)(=O)O)[C@H]1CC[C@H]2[C@@H]3[C@@H](O)C[C@@H]4C[C@H](O)CC[C@]4(C)[C@H]3CC[C@]12C [Tauroursodeoxycholate (dihydrate)]
inactive: EGFR; 10 µM 0 | EGFR_G719S; 10 µM 0 | EGFR_G719S_T790M; 10 µM 0 | EGFR_L718V; 10 µM 0 | EGFR_L858R; 10 µM 0 | EGFR_L861Q; 10 µM 0 | EGFR_T790M; 10 µM 0 | EPHA2; 10 µM 0 | ERBB3; 10 µM 0 | [1]; 10 µM 0

Nc1cncc(-c2cn3ccnc3c(Nc3ccc(N4CCN(C5COC5)CC4)cc3)n2)n1 [Lanraplenib (succinate)]
inactive: EGFR; 10 µM 0 | EGFR_G719S; 10 µM 0 | EGFR_G719S_T790M; 10 µM 0 | EGFR_L718V; 10 µM 0 | EGFR_L858R; 10 µM 0 | EGFR_L861Q; 10 µM 0 | EGFR_T790M; 10 µM 0 | EPHA2; 10 µM 0 | ERBB3; 10 µM 0 | [1]; 10 µM 0

CN(C)C(=O)c1cc2cnc(Nc3ccc(N4CCNCC4)cn3)nc2n1C1CCCC1 [Ribociclib succinate]
inactive: EGFR; 10 µM 0 | EGFR_G719S; 10 µM 0 | EGFR_G719S_T790M; 10 µM 0 | EGFR_L718V; 10 µM 0 | EGFR_L858R; 10 µM 0 | EGFR_L861Q; 10 µM 0 | EGFR_T790M; 10 µM 0 | EPHA2; 10 µM 0 | ERBB3; 10 µM 0 | [1]; 10 µM 0

C[C@H](Nc1cc(-c2cnn(C)c2)cc(Nc2cnccn2)n1)c1ccc(F)cc1 [Ilginatinib]
inactive: EGFR; 2.5 µM 0 | EGFR_G719S; 2.5 µM 0 | EGFR_G719S_T790M; 2.5 µM 0 | EGFR_L718V; 2.5 µM 0 | EGFR_L858R; 2.5 µM 0 | EGFR_L861Q; 2.5 µM 0 | EGFR_T790M; 2.5 µM 0 | EPHA2; 2.5 µM 0 | ERBB3; 2.5 µM 0 | [1]; 2.5 µM 0

CCCC(=O)Nc1ncnc2c1ncn2[C@@H]1O[C@@H]2COP(=O)(O)O[C@H]2[C@H]1OC(=O)CCC [Bucladesine (sodium)]
inactive: EGFR; 10 µM 0 | EGFR_G719S; 10 µM 0 | EGFR_G719S_T790M; 10 µM 0 | EGFR_L718V; 10 µM 0 | EGFR_L858R; 10 µM 0 | EGFR_L861Q; 10 µM 0 | EGFR_T790M; 10 µM 0 | EPHA2; 10 µM 0 | ERBB3; 10 µM 0 | [1]; 10 µM 0

Cn1ncc(Cl)c1-c1cc(C(=O)N[C@H](CN)Cc2cccc(F)c2)sc1Cl [Afuresertib]
inactive: EGFR; 10 µM 0 | EGFR_G719S; 10 µM 0 | EGFR_G719S_T790M; 10 µM 0 | EGFR_L718V; 10 µM 0 | EGFR_L858R; 10 µM 0 | EGFR_L861Q; 10 µM 0 | EGFR_T790M; 10 µM 0 | EPHA2; 10 µM 0 | ERBB3; 10 µM 0 | [1]; 10 µM 0

COc1ncc(F)cc1CNc1ccc(Cc2c[nH]c3ncc(C)cc23)c(F)n1
inactive: EGFR; 10 µM 0 | EGFR_G719S; 10 µM 0 | EGFR_G719S_T790M; 10 µM 0 | EGFR_L718V; 10 µM 0 | EGFR_L858R; 10 µM 0 | EGFR_L861Q; 10 µM 0 | EGFR_T790M; 10 µM 0 | EPHA2; 10 µM 0 | ERBB3; 10 µM 0 | [1]; 10 µM 0

C=CC(=O)Nc1cc(Nc2ncc(C(=O)OC(C)C)c(-c3cn(C)c4ccccc34)n2)c(OC)cc1N(C)CCN(C)C [Mobocertinib (succinate)]
inactive: EGFR; 10 µM 0 | EGFR_G719S; 10 µM 0 | EGFR_G719S_T790M; 10 µM 0 | EGFR_L718V; 10 µM 0 | EGFR_L858R; 10 µM 0 | EGFR_L861Q; 10 µM 0 | EGFR_T790M; 10 µM 0 | EPHA2; 10 µM 0 | ERBB3; 10 µM 0 | [1]; 10 µM 0

C=CC(=O)Nc1cc(Nc2nccc(-c3cn(C)c4ccccc34)n2)c(OC)cc1N(C)CCN(C)C [Osimertinib mesylate]
inactive: EPHA2; 2.5 µM 0 | ERBB3; 2.5 µM 0 | [1]; 2.5 µM 0

C#Cc1cccc(Nc2ncnc3cc(OCCOC)c(OCCOC)cc23)c1 [Erlotinib (Hydrochloride)]
inactive: EPHA2; 10 µM 0 | ERBB3; 10 µM 0 | [1]; 10 µM 0

Cc1cccc(/C=N/Nc2cc(N3CCOCC3)nc(OCCc3ccccn3)n2)c1 [Apilimod (mesylate)]
inactive: EGFR; 10 µM 0 | EGFR_G719S; 10 µM 0 | EGFR_G719S_T790M; 10 µM 0 | EGFR_L718V; 10 µM 0 | EGFR_L858R; 10 µM 0 | EGFR_L861Q; 10 µM 0 | EGFR_T790M; 10 µM 0 | EPHA2; 10 µM 0 | ERBB3; 10 µM 0 | [1]; 10 µM 0

COc1cc2c(Oc3ccc4[nH]c(C)cc4c3F)ncnc2cc1OCCCN1CCCC1 [Cediranib]
inactive: EGFR; 2.5 µM 0 | EGFR_G719S; 2.5 µM 0 | EGFR_G719S_T790M; 2.5 µM 0 | EGFR_L718V; 2.5 µM 0 | EGFR_L858R; 2.5 µM 0 | EGFR_L861Q; 2.5 µM 0 | EGFR_T790M; 2.5 µM 0 | EPHA2; 2.5 µM 0 | ERBB3; 2.5 µM 0 | [1]; 2.5 µM 0

O=C1Nc2ccccc2/C1=C/c1ccccn1 [GSK-3β inhibitor 1]
inactive: EGFR; 10 µM 0 | EGFR_G719S; 10 µM 0 | EGFR_G719S_T790M; 10 µM 0 | EGFR_L718V; 10 µM 0 | EGFR_L858R; 10 µM 0 | EGFR_L861Q; 10 µM 0 | EGFR_T790M; 10 µM 0 | EPHA2; 10 µM 0 | ERBB3; 10 µM 0 | [1]; 10 µM 0

Copied from the listing (5 entries):
Cn1ncc(Cl)c1-c1cc(C(=O)N[C@H](CN)Cc2cccc(F)c2)sc1Cl [Afuresertib]
inactive: EGFR; 10 µM 0 | EGFR_G719S; 10 µM 0 | EGFR_G719S_T790M; 10 µM 0 | EGFR_L718V; 10 µM 0 | EGFR_L858R; 10 µM 0 | EGFR_L861Q; 10 µM 0 | EGFR_T790M; 10 µM 0 | EPHA2; 10 µM 0 | ERBB3; 10 µM 0 | [1]; 10 µM 0

COc1ncc(F)cc1CNc1ccc(Cc2c[nH]c3ncc(C)cc23)c(F)n1
inactive: EGFR; 10 µM 0 | EGFR_G719S; 10 µM 0 | EGFR_G719S_T790M; 10 µM 0 | EGFR_L718V; 10 µM 0 | EGFR_L858R; 10 µM 0 | EGFR_L861Q; 10 µM 0 | EGFR_T790M; 10 µM 0 | EPHA2; 10 µM 0 | ERBB3; 10 µM 0 | [1]; 10 µM 0

C=CC(=O)Nc1cc(Nc2ncc(C(=O)OC(C)C)c(-c3cn(C)c4ccccc34)n2)c(OC)cc1N(C)CCN(C)C [Mobocertinib (succinate)]
inactive: EGFR; 10 µM 0 | EGFR_G719S; 10 µM 0 | EGFR_G719S_T790M; 10 µM 0 | EGFR_L718V; 10 µM 0 | EGFR_L858R; 10 µM 0 | EGFR_L861Q; 10 µM 0 | EGFR_T790M; 10 µM 0 | EPHA2; 10 µM 0 | ERBB3; 10 µM 0 | [1]; 10 µM 0

C=CC(=O)Nc1cc(Nc2nccc(-c3cn(C)c4ccccc34)n2)c(OC)cc1N(C)CCN(C)C [Osimertinib mesylate]
inactive: EPHA2; 2.5 µM 0 | ERBB3; 2.5 µM 0 | [1]; 2.5 µM 0

C#Cc1cccc(Nc2ncnc3cc(OCCOC)c(OCCOC)cc23)c1 [Erlotinib (Hydrochloride)]
inactive: EPHA2; 10 µM 0 | ERBB3; 10 µM 0 | [1]; 10 µM 0

(list continues)

C[S+]([O-])c1ccc(-c2nc(-c3ccc(F)cc3)c(-c3ccncc3)[nH]2)cc1 (centres undefined)
inactive: EPHA2; 10 µM 0 | ERBB3; 10 µM 0 | [1]; 10 µM 0

COc1ccnc(C[S+]([O-])c2nc3cc(-n4cccc4)ccc3[nH]2)c1C (centres undefined) [Ilaprazole]
inactive: EGFR; 10 µM 0 | EGFR_G719S; 10 µM 0 | EGFR_G719S_T790M; 10 µM 0 | EGFR_L718V; 10 µM 0 | EGFR_L858R; 10 µM 0 | EGFR_L861Q; 10 µM 0 | EGFR_T790M; 10 µM 0 | EPHA2; 10 µM 0 | ERBB3; 10 µM 0 | [1]; 10 µM 0

Cc1cc(Nc2ncc(Cl)c(Nc3ccccc3S(=O)(=O)C(C)C)n2)c(OC(C)C)cc1C1CCNCC1 [Ceritinib dihydrochloride]
inactive: EGFR; 2.5 µM 0 | EGFR_G719S; 2.5 µM 0 | EGFR_G719S_T790M; 2.5 µM 0 | EGFR_L718V; 2.5 µM 0 | EGFR_L858R; 2.5 µM 0 | EGFR_L861Q; 2.5 µM 0 | EGFR_T790M; 2.5 µM 0 | EPHA2; 2.5 µM 0 | ERBB3; 2.5 µM 0 | [1]; 2.5 µM 0

C[C@@H](N)[C@H]1CC[C@H](C(=O)Nc2ccncc2)CC1
inactive: EPHA2; 10 µM 0 | ERBB3; 10 µM 0 | [1]; 10 µM 0
